Results are given in words; binding and its absence hold for the method and conditions named. Binding seen in cells or lysates may run through a third protein. Some results given as binding are weak or reduced against the parent protein; the word gives no strength.

Chains of the proteins cited; added tags and fusions are not shown. Lines headed by an entry give the natural chain unless they say otherwise; changes in a name come on top.
UniProt Q13315: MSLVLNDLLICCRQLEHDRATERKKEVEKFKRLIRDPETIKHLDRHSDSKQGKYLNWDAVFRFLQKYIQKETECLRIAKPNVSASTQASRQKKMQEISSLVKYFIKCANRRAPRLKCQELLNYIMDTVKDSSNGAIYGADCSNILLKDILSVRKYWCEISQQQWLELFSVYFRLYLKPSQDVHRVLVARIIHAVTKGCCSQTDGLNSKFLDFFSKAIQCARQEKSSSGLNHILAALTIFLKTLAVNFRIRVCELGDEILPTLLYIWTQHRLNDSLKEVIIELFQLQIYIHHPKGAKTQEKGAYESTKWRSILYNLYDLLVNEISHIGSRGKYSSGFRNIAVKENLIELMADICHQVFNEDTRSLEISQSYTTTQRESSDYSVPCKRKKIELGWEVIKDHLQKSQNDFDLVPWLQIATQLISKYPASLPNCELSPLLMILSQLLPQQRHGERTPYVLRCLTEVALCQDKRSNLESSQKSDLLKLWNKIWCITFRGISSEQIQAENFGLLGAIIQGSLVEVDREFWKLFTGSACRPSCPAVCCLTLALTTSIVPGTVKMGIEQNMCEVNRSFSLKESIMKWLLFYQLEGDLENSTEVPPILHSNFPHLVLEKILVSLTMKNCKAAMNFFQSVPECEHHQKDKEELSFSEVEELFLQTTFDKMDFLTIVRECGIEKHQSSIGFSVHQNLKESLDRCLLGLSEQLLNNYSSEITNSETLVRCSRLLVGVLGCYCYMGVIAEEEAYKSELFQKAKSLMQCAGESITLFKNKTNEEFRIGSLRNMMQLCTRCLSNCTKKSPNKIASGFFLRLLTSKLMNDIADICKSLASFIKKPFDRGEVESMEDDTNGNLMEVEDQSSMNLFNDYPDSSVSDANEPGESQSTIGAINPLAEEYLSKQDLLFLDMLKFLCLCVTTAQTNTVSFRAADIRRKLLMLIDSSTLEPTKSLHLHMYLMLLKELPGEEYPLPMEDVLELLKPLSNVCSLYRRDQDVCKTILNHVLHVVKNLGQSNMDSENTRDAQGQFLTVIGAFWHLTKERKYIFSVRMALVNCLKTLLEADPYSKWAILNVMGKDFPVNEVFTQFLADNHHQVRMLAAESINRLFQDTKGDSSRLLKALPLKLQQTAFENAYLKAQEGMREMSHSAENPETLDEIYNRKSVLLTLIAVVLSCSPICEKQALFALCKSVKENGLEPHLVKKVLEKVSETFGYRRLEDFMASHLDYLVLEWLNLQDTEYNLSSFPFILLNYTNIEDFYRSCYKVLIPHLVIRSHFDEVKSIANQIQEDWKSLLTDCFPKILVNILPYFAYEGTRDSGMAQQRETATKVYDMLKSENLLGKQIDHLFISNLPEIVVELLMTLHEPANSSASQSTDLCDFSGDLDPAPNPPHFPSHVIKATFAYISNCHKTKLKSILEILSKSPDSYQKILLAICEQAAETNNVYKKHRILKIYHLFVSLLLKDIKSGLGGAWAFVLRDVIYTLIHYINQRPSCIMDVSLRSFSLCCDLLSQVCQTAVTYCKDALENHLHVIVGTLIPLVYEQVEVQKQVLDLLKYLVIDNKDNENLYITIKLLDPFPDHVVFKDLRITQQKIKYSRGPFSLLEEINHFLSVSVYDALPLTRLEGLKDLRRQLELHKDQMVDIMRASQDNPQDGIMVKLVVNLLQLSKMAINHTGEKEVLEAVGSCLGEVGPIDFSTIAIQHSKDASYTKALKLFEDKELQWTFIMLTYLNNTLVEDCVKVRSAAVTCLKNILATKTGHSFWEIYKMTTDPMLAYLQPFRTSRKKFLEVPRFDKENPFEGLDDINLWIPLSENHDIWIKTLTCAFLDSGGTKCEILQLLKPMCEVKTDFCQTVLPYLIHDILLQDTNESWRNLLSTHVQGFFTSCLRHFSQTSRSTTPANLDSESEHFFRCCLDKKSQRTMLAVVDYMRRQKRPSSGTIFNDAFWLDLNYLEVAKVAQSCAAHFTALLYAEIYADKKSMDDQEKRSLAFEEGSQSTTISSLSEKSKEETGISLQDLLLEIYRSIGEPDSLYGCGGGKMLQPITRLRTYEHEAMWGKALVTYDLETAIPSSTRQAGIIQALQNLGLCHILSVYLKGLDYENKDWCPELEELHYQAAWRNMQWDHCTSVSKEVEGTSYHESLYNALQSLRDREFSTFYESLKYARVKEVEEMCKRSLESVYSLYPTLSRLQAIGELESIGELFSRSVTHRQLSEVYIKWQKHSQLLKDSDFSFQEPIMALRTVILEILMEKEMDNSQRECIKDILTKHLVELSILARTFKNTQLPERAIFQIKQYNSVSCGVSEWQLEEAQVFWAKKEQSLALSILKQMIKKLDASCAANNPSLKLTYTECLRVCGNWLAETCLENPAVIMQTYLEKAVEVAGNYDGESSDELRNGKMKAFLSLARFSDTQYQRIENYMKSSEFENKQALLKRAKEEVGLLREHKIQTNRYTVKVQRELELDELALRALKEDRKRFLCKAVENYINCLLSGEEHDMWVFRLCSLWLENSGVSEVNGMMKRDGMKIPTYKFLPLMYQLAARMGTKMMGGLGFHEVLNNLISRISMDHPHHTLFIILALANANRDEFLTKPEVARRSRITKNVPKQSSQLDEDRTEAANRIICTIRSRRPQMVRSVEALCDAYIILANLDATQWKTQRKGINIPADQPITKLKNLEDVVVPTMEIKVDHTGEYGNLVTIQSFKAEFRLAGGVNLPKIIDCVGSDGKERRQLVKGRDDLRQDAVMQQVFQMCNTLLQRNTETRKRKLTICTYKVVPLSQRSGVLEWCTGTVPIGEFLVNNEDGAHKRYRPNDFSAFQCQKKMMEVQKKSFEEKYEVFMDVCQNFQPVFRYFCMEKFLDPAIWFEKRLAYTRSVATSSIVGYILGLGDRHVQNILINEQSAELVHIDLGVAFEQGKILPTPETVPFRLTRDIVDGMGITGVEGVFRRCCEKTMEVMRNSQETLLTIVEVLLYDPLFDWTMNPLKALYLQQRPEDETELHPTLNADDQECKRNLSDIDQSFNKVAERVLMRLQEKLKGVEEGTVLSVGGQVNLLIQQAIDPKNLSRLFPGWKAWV
UniProt O43791: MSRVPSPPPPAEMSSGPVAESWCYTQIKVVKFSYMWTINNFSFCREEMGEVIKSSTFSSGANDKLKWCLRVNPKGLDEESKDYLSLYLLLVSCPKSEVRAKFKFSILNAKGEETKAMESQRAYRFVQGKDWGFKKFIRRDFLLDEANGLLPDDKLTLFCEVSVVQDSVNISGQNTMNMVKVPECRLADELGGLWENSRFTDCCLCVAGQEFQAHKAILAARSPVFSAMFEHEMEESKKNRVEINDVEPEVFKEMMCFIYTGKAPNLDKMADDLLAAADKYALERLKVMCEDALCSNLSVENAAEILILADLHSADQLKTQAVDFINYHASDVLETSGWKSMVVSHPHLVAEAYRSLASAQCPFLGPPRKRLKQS

The target of test [1] is Ataxia Telangiectasia Mutated (ATM), in cells (human (endogenous in PC-3)) (UniProt Q13315). Briefly: proximity ligation; In Situ Proximity Ligation Assay in cells, foci after IR.
The next test has as its target HA-SPOP wild type (UniProt O43791). Briefly: co-IP; PC-3 cells transfected with vector, wild type or mutant HA-SPOP constructs, treated with 5Gy of IR; pull-down of HA, blots of MCM5 and MCM3.

On to “SPOP, wild-type form (proximity ligation assay) (from UniProt O43791 1-374)”, for which the binding result in test [1] was “binds”.

B1: Mini Chromosome Maintenance 5 (MCM5) (protein, UniProt P33992 1-734)
chain: MSGFDDPGIFYSDSFGGDAQADEGQARKSQLQRRFKEFLRQYRVGTDRTGFTFKYRDELKRHYNLGEYWIEVEMEDLASFDEDLADYLYKQPAEHLQLLEEAAKEVADEVTRPRPSGEEVLQDIQVMLKSDASPSSIRSLKSDMMSHLVKIPGIIIAASAVRAKATRISIQCRSCRNTLTNIAMRPGLEGYALPRKCNTDQAGRPKCPLDPYFIMPDKCKCVDFQTLKLQELPDAVPHGEMPRHMQLYCDRYLCDKVVPGNRVTIMGIYSIKKFGLTTSRGRDRVGVGIRSSYIRVLGIQVDTDGSGRSFAGAVSPQEEEEFRRLAALPNVYEVISKSIAPSIFGGTDMKKAIACLLFGGSRKRLPDGLTRRGDINLLMLGDPGTAKSQLLKFVEKCSPIGVYTSGKGSSAAGLTASVMRDPSSRNFIMEGGAMVLADGGVVCIDEFDKMREDDRVAIHEAMEQQTISIAKAGITTTLNSRCSVLAAANSVFGRWDETKGEDNIDFMPTILSRFDMIFIVKDEHNEERDVMLAKHVITLHVSALTQTQAVEGEIDLAKLKKFIAYCRVKCGPRLSAEAAEKLKNRYIIMRSGARQHERDSDRRSSIPITVRQLEAIVRIAEALSKMKLQPFATEADVEEALRLFQVSTLDAALSGTLSGVEGFTSQEDQEMLSRIEKQLKRRFAIGSQVSEHSIIKDFTKQKYPEHAIHKVLQLMLRRGEIQHRMQRKVLYRLK
For B1, the binding entry with HA-SPOP wild type is “binds”.

B2: MCM3 (protein, UniProt P25205 1-808)
chain: MAGTVVLDDVELREAQRDYLDFLDDEEDQGIYQSKVRELISDNQYRLIVNVNDLRRKNEKRANRLLNNAFEELVAFQRALKDFVASIDATYAKQYEEFYVGLEGSFGSKHVSPRTLTSCFLSCVVCVEGIVTKCSLVRPKVVRSVHYCPATKKTIERRYSDLTTLVAFPSSSVYPTKDEENNPLETEYGLSVYKDHQTITIQEMPEKAPAGQLPRSVDVILDDDLVDKAKPGDRVQVVGTYRCLPGKKGGYTSGTFRTVLIACNVKQMSKDAQPSFSAEDIAKIKKFSKTRSKDIFDQLAKSLAPSIHGHDYVKKAILCLLLGGVERDLENGSHIRGDINILLIGDPSVAKSQLLRYVLCTAPRAIPTTGRGSSGVGLTAAVTTDQETGERRLEAGAMVLADRGVVCIDEFDKMSDMDRTAIHEVMEQGRVTIAKAGIHARLNARCSVLAAANPVYGRYDQYKTPMENIGLQDSLLSRFDLLFIMLDQMDPEQDREISDHVLRMHRYRAPGEQDGDAMPLGSAVDILATDDPNFSQEDQQDTQIYEKHDNLLHGTKKKKEKMVSAAFMKKYIHVAKIIKPVLTQESATYIAEEYSRLRSQDSMSSDTARTSPVTARTLETLIRLATAHAKARMSKTVDLQDAEEAVELVQYAYFKKVLEKEKKRKKRSEDESETEDEEEKSQEDQEQKRKRRKTRQPDAKDGDSYDPYDFSDTEEEMPQVHTPKTADSQETKESQKVELSESRLKAFKVALLDVFREAHAQSIGMNRLTESINRDSEEPFSSVEIQAALSKMQDDNQVMVSEGIIFLI
Regarding B2, in the test with HA-SPOP wild type, the binding result was “binds”.

Source of the values: paper PMC7809020.
